# Small-molecule microarray binding calls

Targets, with sequences 5′ to 3′:
PreQ1: PreQ1 riboswitch RNA pseudoknot, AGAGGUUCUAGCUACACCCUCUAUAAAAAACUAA. From B. subtilis. Hit rate about 0.7% of about 24,000 compounds.
SAM-II: SAM-II riboswitch RNA pseudoknot, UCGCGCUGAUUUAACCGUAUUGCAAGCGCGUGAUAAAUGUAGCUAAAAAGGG. Hit rate about 1% of about 21,000 compounds.

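The test is a small-molecule microarray: each compound is printed twice on a reactive slide, and binding shows as fluorescence of the labelled oligonucleotide after washing. For the PreQ1, TPP and SAM-II riboswitches the laboratory earlier reported (doi:10.1038/s41467-019-09493-3) 1 µM RNA, 2 h, and a rule that included a mean Z-score above 3 (spot signal-to-noise against the whole library), a score well above that on a control array, and duplicate spots agreeing (coefficient of variation under 100). The data file gives only the calls; its cut-offs may differ, and compounds hitting several targets are kept. The calls come from the array alone, and fixing a compound to the slide can hide its binding.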
A compound is marked active if it was called a hit and inactive if it was screened but was not.
Compounds were drawn at random from those tested, without regard to their results.
A target missing from an entry has no call listed here.
A dash means that no call is listed here.

- Cc1cccc(-c2nn3c(NCCN(C)C)cc(C)nc3c2C)c1 | PreQ1: inactive
- Cc1nn(-c2ccccc2)c2sc(C(=O)NCCO)cc12 | PreQ1: inactive; SAM-II: inactive
- CCC(CO)N(Cc1ccc(OC)c(COC)c1)Cc1ccco1 (centres undefined) | PreQ1: inactive; SAM-II: inactive
- CCC(CO)NCc1ccc(OCc2ccc3c(c2)n(C)c(=O)n3C)c(OC)c1 (centres undefined) | PreQ1: inactive
- COc1cccc(Nc2c(-c3ccccc3)c(=O)c2=O)c1 | PreQ1: inactive
- Cc1cc(Nc2cccc(Cl)c2)n2nc(-c3ccccc3)nc2n1 | PreQ1: inactive
- OCCC[C@@H]1CN(Cc2ccc(Cl)s2)CC[C@@H]1N1CCOCC1 | PreQ1: inactive; SAM-II: inactive
- C=C(c1ccc(C(=O)O)cc1)c1cc2c(cc1C)C(C)(C)CCC2(C)C | PreQ1: inactive; SAM-II: inactive
- COc1ccc2c(c1)CCN1C2CCN2C(=O)CCC21 (centres undefined) | PreQ1: inactive; SAM-II: inactive
- O=C(c1cc(=O)[nH]c2ccccc12)N(CCCO)Cc1ccc(Cl)cc1 | PreQ1: inactive; SAM-II: inactive
- COC(=O)C1(C(=O)OC)C2C(=O)C3C(C21)C3(C(=O)OC(C)(C)C)C(=O)OC(C)(C)C (centres undefined) | PreQ1: inactive; SAM-II: inactive
- CN(C)CC(NC1CCC2(CCNCC2)CC1)c1ccccc1 (centres undefined) | PreQ1: inactive; SAM-II: inactive
- NCCC1CN(c2cnn(CCCn3cnnn3)c(=O)c2)CCO1 (centres undefined) | PreQ1: inactive; SAM-II: inactive
- COc1ccc(N2C(=O)c3ccccc3NC2c2c(F)c(F)c(F)c(F)c2F)cc1 (centres undefined) | PreQ1: inactive; SAM-II: inactive
- NC1=C(c2nc3ccccc3[nH]2)C(=O)CN1Cc1ccc2c(c1)OCO2 | PreQ1: inactive
- CS(=O)(=O)c1sc2nc(-c3cccs3)cc(-c3ccccc3)c2c1N | PreQ1: inactive; SAM-II: inactive
- Nc1ncn([C@H]2C[C@H](O)[C@@H](CO)O2)c(=O)n1 | PreQ1: inactive; SAM-II: inactive
- O=C(O)C1CN(Cc2ncccn2)CCN(C(=O)CCO)C1 (centres undefined) | PreQ1: inactive; SAM-II: inactive
- Nc1cc(C(=O)NC2CC2)ccc1-n1ccnc1 | PreQ1: inactive; SAM-II: inactive
- COc1ccc2[nH]c(C(=O)N3CCC4(CCCNC4)C3)c(C)c2c1 (centres undefined) | PreQ1: inactive; SAM-II: inactive
- CCOC(=O)C(CO)NC(=O)c1cncc(O)c1 (centres undefined) | PreQ1: inactive; SAM-II: inactive
- OC1COCCN(Cc2ccc(-c3cc[nH]n3)s2)C1 (centres undefined) | PreQ1: inactive; SAM-II: inactive
- O=C1CCC2(CCCN(CCOc3ccc(Cl)cc3)C2)CN1CCO (centres undefined) | PreQ1: inactive; SAM-II: inactive
- COCCn1cncc1CN1CCN(C(=O)c2cc[nH]c2)CC(O)C1 (centres undefined) | PreQ1: inactive; SAM-II: inactive
- COc1ccc(CNC(=O)c2nn(-c3ccc(C)c(C)c3)nc2CO)cc1 | PreQ1: inactive
- Cn1ncc(N2CCN(C(=O)C3NCCc4[nH]cnc43)CC2)cc1=O (centres undefined) | PreQ1: inactive; SAM-II: inactive

Once more, the final 2:

structure,PreQ1,SAM-II
COc1ccc(CNC(=O)c2nn(-c3ccc(C)c(C)c3)nc2CO)cc1,inactive,-
Cn1ncc(N2CCN(C(=O)C3NCCc4[nH]cnc43)CC2)cc1=O (centres undefined),inactive,inactive

From ROBIN, a set of small-molecule microarray screens (doi:10.1002/anie.202211358).